Experimental data published in the supplement of paper PMC10735217.
Counter-ions that a name gives are not always drawn. This is one part of the list. This data set is noisy: repeats of one test often differ as much as different tests do.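 Human kidney-derived cells stably carry a construct in which eight TEAD-binding elements drive luciferase, measured by luminescence in a drug-repurposing library screen. A hit is any compound whose signal exceeds the plate mean by more than five robust Z scores.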

Tested on: HEK293A TEAD-LUC reporter
Assay: TEAD-luciferase reporter activity (YAP activation), robust Z score vs plate; higher = stronger YAP/TEAD activation
Conditions: 24 h

Structure (SMILES)	TEAD-luciferase reporter activity (compound concentration: 200 nM)	TEAD-luciferase reporter activity (compound concentration: 2 uM)	TEAD-luciferase reporter activity (compound concentration: 10 uM)
COc1ccc(C(=O)/C(Br)=C/C(=O)O)cc1 [Bromebrate sodium]	inactive: -0.877	inactive: -1.04	inactive: 0.671
C=C(CC)C(=O)c1ccc(OCC(=O)O)c(Cl)c1Cl	inactive: -0.635		inactive: 1.28
C=C(CC)C(=O)c1ccc(OCC(=O)O)c(Cl)c1Cl [etacrynic acid]		inactive: -0.823	
Cc1cnc(NC(=O)c2cc(Oc3cnc(C(=O)N(C)C)nc3)c3cc(C)oc3c2)cn1	inactive: 0.638	inactive: -0.54	inactive: -1.71
C=C1c2cccc(O)c2C(=O)C2C(=O)[C@]3(O)C(=O)C(C(N)=O)C(=O)[C@@H](N(C)C)[C@@H]3[C@@H](O)[C@H]12 (stereo partly drawn)		inactive: 0.351	
C=C1c2cccc(O)c2C(=O)C2C(=O)[C@]3(O)C(=O)C(C(N)=O)C(=O)[C@@H](N(C)C)[C@@H]3[C@@H](O)[C@H]12 (stereo partly drawn) [Methacycline HCl]	inactive: -1.75		inactive: 1.02
COc1ccccc1OC(=O)CNC(=O)Cc1ccc(C(=O)c2ccc(C)cc2)n1C [amtolmetin guacil]	inactive: -0.834	inactive: 3.98	inactive: 2.25
CC(C)(C)NCC(O)COc1ccc(NC(=O)NC2CCCCC2)cc1 (stereo not drawn) [Talinolol]	active: 5.02	inactive: -1.67	inactive: 0.557
COc1ccc(C(NC(=O)c2cnc(-c3cccnn3)nc2O)c2ccc(OC)cc2)cc1	inactive: 0.697	inactive: -1.14	inactive: -0.151
C#C[C@]1(O)CCC2C3CCC4=C(CCC(=O)C4)C3CC[C@@]21C (stereo partly drawn)	inactive: -0.781	inactive: -0.687	inactive: -0.831
Cc1c(C(=O)Nc2ccc(N3C[C@@H](C)O[C@@H](C)C3)nc2)cccc1-c1ccc(OC(F)(F)F)cc1 [Sonidegib phosphate]	inactive: 2.65	inactive: -0.652	inactive: 1.99
Cc1ccc2c(Nc3cccc(Cl)c3)nccc2c1NC(=O)c1csc2c(N)ncnc12	inactive: -1.28	inactive: -1.08	inactive: -0.43
Nc1ncnc2c1nc(Cl)n2C1O[C@H](CO)[C@@H](O)[C@H]1O (stereo partly drawn)	inactive: -1.56	inactive: 2.2	inactive: 1.74
CC1=C(/C=C/C(C)=C/C=C/C(C)=C/C=C/C=C(C)/C=C/C=C(C)/C=C/C2=C(C)C(=O)[C@@H](O)CC2(C)C)C(C)(C)C[C@H](O)C1=O [Astaxanthin]	inactive: -0.297	inactive: -0.88	inactive: -0.532
CN(C)CC1=C[CH]([Fe][CH]2C=CC=C2)C=C1CNc1ccnc2cc(Cl)ccc12 (stereo not drawn) [Ferroquine]	inactive: -0.944	inactive: -0.214	inactive: -1.17
C[C@@]1(c2cc(-c3cncnc3)c(F)cc2F)CCSC(=N)N1	inactive: 1.13	inactive: -0.213	inactive: -0.872
CN1CCc2cccc3c2C1Cc1ccc(O)c(O)c1-3 (stereo not drawn) [apomorphine, Altea]		inactive: -0.97	
CN1CCc2cccc3c2C1Cc1ccc(O)c(O)c1-3 (stereo not drawn) [Apomorphine hydrochloride hemihydrate]	inactive: 0.291		inactive: 2.95
O=C(O)C[C@H](O)C[C@H](O)CCn1c(-c2ccc(F)cc2)nc(C(=O)NCc2cccc(F)c2)c1C1CC1	inactive: -1.37	inactive: -0.746	inactive: -1.79

Structure (SMILES)	TEAD-luciferase reporter activity (compound concentration: 200 nM)	TEAD-luciferase reporter activity (compound concentration: 2 uM)	TEAD-luciferase reporter activity (compound concentration: 10 uM)
CN(Cc1ccccc1)C(=O)[C@H](Cc1ccc2ccccc2c1)NC(=O)[C@@H]1CCCN1C(=O)Nc1ccccc1[N+](=O)[O-]	inactive: -2.3	inactive: -2.18	inactive: 0.118
O=c1ccn([C@H]2O[C@@H](CO)[C@H](O)[C@@H]2F)c(=O)[nH]1	inactive: -1.37	inactive: 0.604	inactive: -0.254
COc1ccc(OC)c(C(O)CNC(=O)CN)c1 (stereo not drawn) [Pro-Amatine3092-17-9]	inactive: 1.11		inactive: -2.06
COc1ccc(OC)c(C(O)CNC(=O)CN)c1 (stereo not drawn) [midodrine]		inactive: -1.02	
CCCCCCC/C=C/C(=O)NCCSCCC1CCCCC1	inactive: 1.87	inactive: -1.04	inactive: 3.73
CCCS(=O)(=O)N[C@H]1C[C@@H](N(C)c2ncnc3[nH]ccc23)C1	inactive: 0.0668	inactive: 0.518	inactive: 1.17
CC(C)NC(=O)NC1CC2(CCN(C(=O)c3cccc4[nH]ccc34)CC2)Oc2ccccc21 (stereo not drawn)	inactive: -0.529		inactive: -0.884
Nc1nc2c(ncn2COCCO)c(=O)[nH]1 [aciclovir]	inactive: 2.05	inactive: -1.09	inactive: -1.11
CCCCCCC(C)NN (stereo not drawn)	inactive: 0.172	inactive: 1.34	inactive: 0.937
CCc1nnc(NS(=O)(=O)c2ccc(N)cc2)s1	inactive: 0.429	inactive: 0.14	inactive: 1.72
C[C@H](NC(=O)/C(C#N)=C/c1cccc(Br)n1)c1ccccc1	inactive: -1.27	inactive: -0.569	inactive: 0.758
COc1cccc2c1C(=O)C(C(=O)N(C)c1ccc(C(F)(F)F)cc1)C(=O)N2C (stereo not drawn) [tasquinimod]	inactive: -1.69	inactive: -1.45	inactive: -0.111
[O-][n+]1cccc(-c2nc3c(Cl)cccc3cc2[C@@H](Nc2ncnc3cccnc23)C(F)(F)F)c1	inactive: -0.983	inactive: -1.26	inactive: -0.649
CC(C)(C)C(=O)OCOP(=O)(COCCn1cnc2c(N)ncnc21)OCOC(=O)C(C)(C)C [adefovir dipivoxil]	inactive: -3.61	inactive: -1.62	inactive: -1.28
NC(=O)c1c(OCc2c(F)cc(Br)cc2F)nsc1NC(=O)NCCCCN1CCCC1	inactive: -0.431	inactive: -2.59	inactive: -0.455
O=C(O)c1cc2cc(Cc3cccnc3)ccc2o1 [Furegrelate sodium]	inactive: 2.24	inactive: 0.105	inactive: 2.78
CCCCCCCC/C=C\CCCCCCCC(=O)O [Oleic Acid]	inactive: -1.17	inactive: 0.617	inactive: -0.943
CC12CCC(C1)C(C)(C)C2O (stereo not drawn)	inactive: -0.51	inactive: -0.563	inactive: -1.09
CC(=O)OCCC(C)CCC=C(C)C (stereo not drawn)	inactive: -0.0414	inactive: -0.923	inactive: -0.752

Given bar-delimited: part of the list above
Structure (SMILES) | TEAD-luciferase reporter activity (compound concentration: 200 nM) | TEAD-luciferase reporter activity (compound concentration: 2 uM) | TEAD-luciferase reporter activity (compound concentration: 10 uM)
CCc1nnc(NS(=O)(=O)c2ccc(N)cc2)s1 | inactive: 0.429 | inactive: 0.14 | inactive: 1.72
C[C@H](NC(=O)/C(C#N)=C/c1cccc(Br)n1)c1ccccc1 | inactive: -1.27 | inactive: -0.569 | inactive: 0.758
COc1cccc2c1C(=O)C(C(=O)N(C)c1ccc(C(F)(F)F)cc1)C(=O)N2C (stereo not drawn) [tasquinimod] | inactive: -1.69 | inactive: -1.45 | inactive: -0.111

Next part:

Structure (SMILES)	TEAD-luciferase reporter activity (compound concentration: 200 nM)	TEAD-luciferase reporter activity (compound concentration: 2 uM)	TEAD-luciferase reporter activity (compound concentration: 10 uM)
O=c1oc2cc(O)ccc2s1	inactive: 0.699	inactive: 0.0648	inactive: 1.07
S=C=Nc1ccc(N=C=S)cc1	inactive: -1.1	inactive: -0.728	inactive: -1.63
CCN(CCO)c1nc(-c2ccccc2)c(-c2ccccc2)o1	inactive: -0.998	inactive: -0.554	inactive: 0.282
O=C(c1ccccc1)N1CC2COCC2C1 (stereo not drawn)	inactive: -0.987	inactive: 0.0459	inactive: -0.612
O=[N+]([O-])c1ccc(Nc2ccc(N=C=S)cc2)cc1 [amoscanate]	inactive: 0.31	inactive: -0.444	inactive: 1.85
C[C@]12CC[C@@H]3c4ccc(O)cc4CC[C@H]3[C@@H]1[C@@H](O)[C@@H](O)[C@@H]2O [Estetrol]	inactive: -0.933	inactive: 1.19	inactive: -0.0922
COc1ccc(S(=O)(=O)N2CCN(C(C)c3nc(OC4CCCCC4)c4ccccc4n3)CC2)cc1 (stereo not drawn)	inactive: -0.993	inactive: -1.04	inactive: -0.541
O=C(O)c1cc(-c2ccc(Nc3nc4ccc(F)cc4s3)cc2)no1	inactive: -1.45	inactive: 0.771	inactive: 0.159
CCOC(=O)C(=O)Nc1ccc2oc(=O)cc(C)c2c1	inactive: 0.597	inactive: -0.286	inactive: 2.59
N#CC(c1ccnc(OCc2ccc(CN3CCOCC3)cc2)n1)c1nc2ccccc2s1 (stereo not drawn) [Bentamapimod]	inactive: -0.0317	inactive: -1.36	inactive: -1.3
Nc1cc(N2CCN(CCP(=O)(O)O)CC2)nc(NC[C@H]2CC[C@H](CNCCCNC3CCCCC3)CC2)n1 [Burixafor]	inactive: -1.59	inactive: 0.281	inactive: 0.118
COc1ccccc1-c1csc(Cc2cn3ccccc3n2)n1	inactive: -1.71	inactive: -1.29	inactive: 4.47
COc1cc(C)ccc1OCC(=O)NC1(C(=O)O)Cc2ccccc2C1	inactive: 1.33	inactive: -0.593	inactive: -2.41
O=C([O-])C1O[C@@H](OC2[C@H](O)C(NS(=O)(=O)[O-])C(O)O[C@@H]2COS(=O)(=O)[O-])C(OS(=O)(=O)[O-])[C@@H](O)C1O (stereo partly drawn)	inactive: -0.508	inactive: 0.00717	inactive: 0.243
CCCC(=O)OCOC(=O)C(C)(C)C	inactive: -1.57	inactive: -1.46	inactive: 0.217
COc1ccc(-n2nnnc2C(F)(F)F)cc1CN[C@@H]1CCCN[C@@H]1c1ccccc1	inactive: -1.06	inactive: 1.53	inactive: -0.0927
Fc1ccc(OC[C@@H]2CNCCO2)c2c1CCC2	inactive: 3.37	inactive: 3.53	inactive: -0.146
CC(C)NCC(O)CC(c1ccccc1)c1ccccc1 (stereo not drawn)	inactive: 0.1	inactive: -1.65	inactive: -1.03
O=C1N[C@@H]2[C@@H](O)[C@@H](O)[C@H](O)[C@@H](CO)N2C1=O [kifunensine]	inactive: -0.413	inactive: -0.735	inactive: -1.24
